# Assay results from PMC3302888, “Small-Animal PET Imaging of Amyloid-Beta Plaques with [^11C]PiB and Its Multi-Modal Validation in an APP/PS1 Mouse Model of Alzheimer's Disease” (PLoS ONE, 2012).
# Values joined by “and” are separate entries in the source; they are usually repeats but may differ in a detail not shown here. Identical values can stand only once.
# System: Aβ plaques
# Assay: Histological quantification of relative Aβ plaque burden with Thioflavin S
# Design: species or system mouse
substance,measurement,setting,value
Thioflavin S,Plaque load based on Thioflavin S binding in neocortex,ctl-old,0.61±0.17%
same,average cerebellar binding of Thioflavin S,ctl-old,0.66±0.13%
same,Histology % plaque area neocortex,"individual animals AD1, AD2 (tgtg-young)",4.00% and 4.10%
same,Histology % plaque area neocortex,"individual animals CTL1, CTL2 (ctl-young)",0.54% and 0.41%
same,Plaque load based on Thioflavin S binding in neocortex,tg-old,7.72±1.03%
same,average cerebellar binding of Thioflavin S,tg-old,0.36±0.05%
same,Plaque load based on Thioflavin S binding in neocortex,tgtg-old,11.78±1.63%
same,average cerebellar binding of Thioflavin S,tgtg-old,0.30±0.04%
same,Plaque load based on Thioflavin S binding in neocortex,tgtg-young,4.68±0.70%
same,average cerebellar binding of Thioflavin S,tgtg-young,0.25±0.06%
